One molecule from publication PMC5928214, “Direct binding of CEP85 to STIL ensures robust PLK4 activation and efficient centriole assembly” (Nature Communications, 2018) can be followed below.

The target of this experiment is T1, 3xFLAG-MAP7(17-282)-mCherry-CEP85 wild type (human) (UniProt Q6P2H3).
T1 sequence: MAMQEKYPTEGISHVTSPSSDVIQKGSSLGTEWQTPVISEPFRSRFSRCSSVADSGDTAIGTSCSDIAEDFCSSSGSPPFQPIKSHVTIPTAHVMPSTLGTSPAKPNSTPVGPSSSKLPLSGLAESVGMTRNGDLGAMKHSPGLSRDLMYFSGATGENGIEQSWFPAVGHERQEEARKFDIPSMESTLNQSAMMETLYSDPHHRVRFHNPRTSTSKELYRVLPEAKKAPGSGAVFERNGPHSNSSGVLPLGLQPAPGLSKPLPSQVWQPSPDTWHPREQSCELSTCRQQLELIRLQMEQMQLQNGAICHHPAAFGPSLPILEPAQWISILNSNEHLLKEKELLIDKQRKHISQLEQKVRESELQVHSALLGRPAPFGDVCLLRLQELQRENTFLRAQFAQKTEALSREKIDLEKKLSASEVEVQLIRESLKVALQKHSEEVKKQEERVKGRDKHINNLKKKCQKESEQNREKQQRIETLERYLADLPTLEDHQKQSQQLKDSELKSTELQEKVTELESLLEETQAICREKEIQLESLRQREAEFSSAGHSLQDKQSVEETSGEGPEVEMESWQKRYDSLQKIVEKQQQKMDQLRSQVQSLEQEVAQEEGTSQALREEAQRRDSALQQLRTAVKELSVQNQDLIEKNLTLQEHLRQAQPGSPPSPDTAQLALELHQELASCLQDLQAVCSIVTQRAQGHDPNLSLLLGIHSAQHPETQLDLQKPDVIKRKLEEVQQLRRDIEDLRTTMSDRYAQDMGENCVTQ
Description: microtubule re-routing assay (recruitment to microtubules, fluorescence microscopy); U-2 OS STIL CRISPR KO cells co-transfected with GFP-STIL and MAP7-mCherry-CEP85 (WT and mutants) for 24 h; CEP85 held on microtubules by MAP7 17-282.

These are yes or no findings as the source states them, for the method shown. Some results given as binding are weak or reduced against the parent protein; the word gives no strength. Tags and fused reporters may be left off the sequences shown.

B1: 3xStrep-GFP-tagged STIL (protein, UniProt Q15468 1-1287)
chain: MEPIYPFARPQMNTRFPSSRMVPFHFPPSKCALWNPTPTGDFIYLHLSYYRNPKLVVTEKTIRLAYRHAKQNKKNSSCFLLGSLTADEDEEGVTLTVDRFDPGREVPECLEITPTASLPGDFLIPCKVHTQELCSREMIVHSVDDFSSALKALQCHICSKDSLDCGKLLSLRVHITSRESLDSVEFDLHWAAVTLANNFKCTPVKPIPIIPTALARNLSSNLNISQVQGTYKYGYLTMDETRKLLLLLESDPKVYSLPLVGIWLSGITHIYSPQVWACCLRYIFNSSVQERVFSESGNFIIVLYSMTHKEPEFYECFPCDGKIPDFRFQLLTSKETLHLFKNVEPPDKNPIRCELSAESQNAETEFFSKASKNFSIKRSSQKLSSGKMPIHDHDSGVEDEDFSPRPIPSPHPVSQKISKIQPSVPELSLVLDGNFIESNPLPTPLEMVNNENPPLINHLEHLKPLQPQLYDEKHSPEVEAGEPSLRGIPNQLNQDKPALLRHCKVRQPPAYKKGNPHTRNSIKPSSHNGPSHDIFEKLQTVSAGNVQNEEYPIRPSTLNSRQSSLAPQSQPHDFVFSPHNSGRPMELQIPTPPLPSYCSTNVCRCCQHHSHIQYSPLNSWQGANTVGSIQDVQSEALQKHSLFHPSGCPALYCNAFCSSSSPIALRPQGDMGSCSPHSNIEPSPVARPPSHMDLCNPQPCTVCMHTPKTESDNGMMGLSPDAYRFLTEQDRQLRLLQAQIQRLLEAQSLMPCSPKTTAVEDTVQAGRQMELVSVEAQSSPGLHMRKGVSIAVSTGASLFWNAAGEDQEPDSQMKQDDTKISSEDMNFSVDINNEVTSLPGSASSLKAVDIPSFEESNIAVEEEFNQPLSVSNSSLVVRKEPDVPVFFPSGQLAESVSMCLQTGPTGGASNNSETSEEPKIEHVMQPLLHQPSDNQKIYQDLLGQVNHLLNSSSKETEQPSTKAVIISHECTRTQNVYHTKKKTHHSRLVDKDCVLNATLKQLRSLGVKIDSPTKVKKNAHNVDHASVLACISPEAVISGLNCMSFANVGMSGLSPNGVDLSMEANAIALKYLNENQLSQLSVTRSNQNNCDPFSLLHINTDRSTVGLSLISPNNMSFATKKYMKRYGLLQSSDNSEDEEEPPDNADSKSEYLLNQNLRSIPEQLGGQKEPSKNDHEIINCSNCESVGTNADTPVLRNITNEVLQTKAKQQLTEKPAFLVKNLKPSPAVNLRTGKAEFTQHPEKENEGDITIFPESLQPSETLKQMNSMNSVGTFLDVKRLRQLPKLF
Take B1: the binding result is reported as “binds”.
